These are yes or no findings as the source states them, for the method shown. Binding calls can cover weak binding; strength is not graded here. Where a sequence is shown, tags or fusion partners need not be part of it. For some assays here: Binding seen in cells or lysates may run through a third protein.
How the values were obtained:
HLH-30::GFP (C. elegans) [1] = molecular target: T1, HLH-30::GFP (C. elegans) (UniProt H2KZZ2); experiment: co-IP; HLH-30::GFP immunoprecipitated with GFP-Trap resin from whole-worm lysates of daf-2 mutant animals expressing HLH-30::GFP and DAF-16::FLAG; Benzonase 50 U/ml; western blot anti-FLAG and anti-GFP
T1 sequence: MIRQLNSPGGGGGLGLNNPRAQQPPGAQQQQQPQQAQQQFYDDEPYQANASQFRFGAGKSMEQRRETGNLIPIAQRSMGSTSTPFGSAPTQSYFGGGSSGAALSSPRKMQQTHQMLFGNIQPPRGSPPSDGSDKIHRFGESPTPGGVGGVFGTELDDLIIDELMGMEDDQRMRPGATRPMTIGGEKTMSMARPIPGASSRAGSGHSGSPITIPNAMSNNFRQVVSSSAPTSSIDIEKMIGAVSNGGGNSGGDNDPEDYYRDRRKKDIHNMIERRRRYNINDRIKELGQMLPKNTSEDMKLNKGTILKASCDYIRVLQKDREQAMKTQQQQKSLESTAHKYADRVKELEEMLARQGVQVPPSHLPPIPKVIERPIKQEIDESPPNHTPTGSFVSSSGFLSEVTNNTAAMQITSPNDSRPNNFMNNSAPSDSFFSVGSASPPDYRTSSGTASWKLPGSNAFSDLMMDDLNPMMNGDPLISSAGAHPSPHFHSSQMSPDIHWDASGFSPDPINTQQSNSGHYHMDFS

HLH-30::GFP (C. elegans) [2] = molecular target: T1, HLH-30::GFP (C. elegans); experiment: SEC; cleared whole-worm lysates of animals co-expressing DAF-16::FLAG and HLH-30::GFP (untreated, daf-2(e1370ts), 6 h at 32 °C, or 6 h 6 mM tBOOH) on Superose 6 10/300; Benzonase 50 U/ml, 0.05% NP-40; fractions blotted anti-FLAG and anti-GFP

Q: With DAF-16::FLAG (from UniProt O16850-4) as the substance, how does the binding (HLH-30::GFP (C. elegans) [1]) read?
A: The binding was “binds”.

Q: And the binding (HLH-30::GFP (C. elegans) [2])?
A: Its binding is “binds”.

— publication PMC6199276
